This continues a long series; more values of the same kind are listed elsewhere.
Legend:
Format in all cases: cell-based
Settings in all cases: U-87MG ATCC
[1] = Inhibition of RTK/PI3K/AKT/mTOR signaling in human U87 cells assessed as down regulation of HIST1H2BC gene expression at cytotoxic IC50 measured after 48 hrs relative to control
[2] = Inhibition of RTK/PI3K/AKT/mTOR signaling in human U87 cells assessed as down regulation of NGFR gene expression at cytotoxic IC50 measured after 48 hrs relative to control
[3] = Inhibition of RTK/PI3K/AKT/mTOR signaling in human U87 cells assessed as down regulation of ARC gene expression at cytotoxic IC50 measured after 48 hrs relative to control
[4] = Inhibition of RTK/PI3K/AKT/mTOR signaling in human U87 cells assessed as down regulation of NRGN gene expression at cytotoxic IC50 measured after 48 hrs relative to control
[5] = Inhibition of RTK/PI3K/AKT/mTOR signaling in human U87 cells assessed as down regulation of C17orf53 gene expression at cytotoxic IC50 measured after 48 hrs relative to control
[6] = Inhibition of RTK/PI3K/AKT/mTOR signaling in human U87 cells assessed as down regulation of RAPH1 gene expression at cytotoxic IC50 measured after 48 hrs relative to control
[7] = Inhibition of RTK/PI3K/AKT/mTOR signaling in human U87 cells assessed as down regulation of ZNF720 gene expression at cytotoxic IC50 measured after 48 hrs relative to control
[8] = Inhibition of RTK/PI3K/AKT/mTOR signaling in human U87 cells assessed as down regulation of SLC25A44 gene expression at cytotoxic IC50 measured after 48 hrs relative to control
[9] = Inhibition of RTK/PI3K/AKT/mTOR signaling in human U87 cells assessed as down regulation of CLCN5 gene expression at cytotoxic IC50 measured after 48 hrs relative to control
[10] = Inhibition of RTK/PI3K/AKT/mTOR signaling in human U87 cells assessed as down regulation of UBE2B gene expression at cytotoxic IC50 measured after 48 hrs relative to control
[11] = Inhibition of RTK/PI3K/AKT/mTOR signaling in human U87 cells assessed as down regulation of ZER1 gene expression at cytotoxic IC50 measured after 48 hrs relative to control
[12] = Inhibition of RTK/PI3K/AKT/mTOR signaling in human U87 cells assessed as down regulation of CNPPD1 gene expression at cytotoxic IC50 measured after 48 hrs relative to control
[13] = Inhibition of RTK/PI3K/AKT/mTOR signaling in human U87 cells assessed as down regulation of USP11 gene expression at cytotoxic IC50 measured after 48 hrs relative to control
[14] = Inhibition of RTK/PI3K/AKT/mTOR signaling in human U87 cells assessed as down regulation of CAP1 gene expression at cytotoxic IC50 measured after 48 hrs relative to control
[15] = Inhibition of RTK/PI3K/AKT/mTOR signaling in human U87 cells assessed as down regulation of MRPL49 gene expression at cytotoxic IC50 measured after 48 hrs relative to control
[16] = Inhibition of RTK/PI3K/AKT/mTOR signaling in human U87 cells assessed as down regulation of PACS1 gene expression at cytotoxic IC50 measured after 48 hrs relative to control
[17] = Inhibition of RTK/PI3K/AKT/mTOR signaling in human U87 cells assessed as up regulation of GDF15 gene expression at cytotoxic IC50 measured after 48 hrs relative to control
[18] = Inhibition of RTK/PI3K/AKT/mTOR signaling in human U87 cells assessed as up regulation of LRP1 gene expression at cytotoxic IC50 measured after 48 hrs relative to control
[19] = Inhibition of RTK/PI3K/AKT/mTOR signaling in human U87 cells assessed as up regulation of PDGFB gene expression at cytotoxic IC50 measured after 48 hrs relative to control
[20] = Inhibition of RTK/PI3K/AKT/mTOR signaling in human U87 cells assessed as up regulation of KRT81 gene expression at cytotoxic IC50 measured after 48 hrs relative to control
[21] = Inhibition of RTK/PI3K/AKT/mTOR signaling in human U87 cells assessed as up regulation of DBP gene expression at cytotoxic IC50 measured after 48 hrs relative to control
[22] = Inhibition of RTK/PI3K/AKT/mTOR signaling in human U87 cells assessed as up regulation of ARHGAP18 gene expression at cytotoxic IC50 measured after 48 hrs relative to control
[23] = Inhibition of RTK/PI3K/AKT/mTOR signaling in human U87 cells assessed as up regulation of semaphorin 4G gene expression at cytotoxic IC50 measured after 48 hrs relative to control
[24] = Inhibition of RTK/PI3K/AKT/mTOR signaling in human U87 cells assessed as up regulation of cyclin G1 gene expression at cytotoxic IC50 measured after 48 hrs relative to control
[25] = Inhibition of RTK/PI3K/AKT/mTOR signaling in human U87 cells assessed as up regulation of AU RNA binding methylglutaconyl-CoA hydratase gene expression at cytotoxic IC50 measured after 48 hrs relative to control
[26] = Inhibition of RTK/PI3K/AKT/mTOR signaling in human U87 cells assessed as up regulation of signal peptidase complex subunit 3 gene expression at cytotoxic IC50 measured after 48 hrs relative to control
[27] = Inhibition of RTK/PI3K/AKT/mTOR signaling in human U87 cells assessed as up regulation of cytochrome p450 oxidoreductase gene expression at cytotoxic IC50 measured after 48 hrs relative to control
[28] = Inhibition of RTK/PI3K/AKT/mTOR signaling in human U87 cells assessed as up regulation of NR2F2 gene expression at cytotoxic IC50 measured after 48 hrs relative to control
[29] = Inhibition of RTK/PI3K/AKT/mTOR signaling in human U87 cells assessed as up regulation of EEF1A1 gene expression at cytotoxic IC50 measured after 48 hrs relative to control
[30] = Inhibition of RTK/PI3K/AKT/mTOR signaling in human U87 cells assessed as up regulation of RAB4A gene expression at cytotoxic IC50 measured after 48 hrs relative to control
[31] = Inhibition of RTK/PI3K/AKT/mTOR signaling in human U87 cells assessed as up regulation of CD9 gene expression at cytotoxic IC50 measured after 48 hrs relative to control
[32] = Inhibition of RTK/PI3K/AKT/mTOR signaling in human U87 cells assessed as up regulation of KDM1A gene expression at cytotoxic IC50 measured after 48 hrs relative to control

**Q.** For `CC(=O)C(=NNc1ccccc1C#N)C(C)=O`, which log2FC [1] is on record?
**A.** -3.93

**Q.** And the log2FC [2]?
**A.** -3.49

**Q.** What about the log2FC [3] of the same compound?
**A.** -3.35

**Q.** And the log2FC [4]?
**A.** -1.75

**Q.** What about the log2FC [5] of the same compound?
**A.** -1.63

**Q.** What about the log2FC [6] of the same compound?
**A.** -1.43

**Q.** What about the log2FC [7] of the same compound?
**A.** -1.27

**Q.** And the log2FC [8]?
**A.** -1.09

**Q.** And the log2FC [9]?
**A.** -1.02

**Q.** And the log2FC [10]?
**A.** -0.764

**Q.** And the log2FC [11]?
**A.** -0.762

**Q.** And the log2FC [12]?
**A.** -0.675

**Q.** And the log2FC [13]?
**A.** -0.646

**Q.** And the log2FC [14]?
**A.** -0.572

**Q.** What about the log2FC [15] of the same compound?
**A.** -0.527

**Q.** And the log2FC [16]?
**A.** -0.442

**Q.** What about the log2FC [17] of the same compound?
**A.** 2.89

**Q.** And the log2FC [18]?
**A.** 2.48

**Q.** What about the log2FC [19] of the same compound?
**A.** 2.19

**Q.** What about the log2FC [20] of the same compound?
**A.** 1.98

**Q.** And the log2FC [21]?
**A.** 1.72

**Q.** And the log2FC [22]?
**A.** 1.64

**Q.** And the log2FC [23]?
**A.** 1.19

**Q.** What about the log2FC [24] of the same compound?
**A.** 0.915

**Q.** What about the log2FC [25] of the same compound?
**A.** 0.835

**Q.** What about the log2FC [26] of the same compound?
**A.** 0.814

**Q.** And the log2FC [27]?
**A.** 0.771

**Q.** What about the log2FC [28] of the same compound?
**A.** 0.614

**Q.** And the log2FC [29]?
**A.** 0.546

**Q.** What about the log2FC [30] of the same compound?
**A.** 0.485

**Q.** And the log2FC [31]?
**A.** 0.451

**Q.** What about the log2FC [32] of the same compound?
**A.** 0.382

From ChEMBL document CHEMBL4316593 (Eur J Med Chem, 2019)
